Laboratory results: patent US11691148B2, “Microfluidic device having partially enclosed microfluidic channel and use thereof” (CURIOCHIPS, priority 2017, dated 2023)
At least one structure is not confirmed: it was looked up by name or label, or the drawing left a doubt.

System: tumor spheroid
Test: effect of a tyrosine kinase inhibitor on a vascularized tumor spheroid monitored in the microfluidic device (FIG. 29)
Type: cell-based

CNC(=O)c1ccccc1Sc1ccc2c(/C=C/c3ccccn3)n[nH]c2c1 [axitinib]
reduced: diameter of vessels | number of vessels interacting with the tumor spheroid | vessel area
